The record followed here is the supplement of paper PMC10849652.

Sequences of proteins named here, by UniProt entry; tags and fusion partners are left off. A change or cut given only in a name is not applied to a line headed by its entry.
UniProt O75223: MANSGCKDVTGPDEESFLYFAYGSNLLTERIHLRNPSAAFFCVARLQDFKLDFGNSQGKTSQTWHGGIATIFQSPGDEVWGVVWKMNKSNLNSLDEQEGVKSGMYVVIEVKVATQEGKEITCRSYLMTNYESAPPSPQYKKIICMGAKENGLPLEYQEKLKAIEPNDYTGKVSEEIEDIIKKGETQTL
UniProt Q9NZ52: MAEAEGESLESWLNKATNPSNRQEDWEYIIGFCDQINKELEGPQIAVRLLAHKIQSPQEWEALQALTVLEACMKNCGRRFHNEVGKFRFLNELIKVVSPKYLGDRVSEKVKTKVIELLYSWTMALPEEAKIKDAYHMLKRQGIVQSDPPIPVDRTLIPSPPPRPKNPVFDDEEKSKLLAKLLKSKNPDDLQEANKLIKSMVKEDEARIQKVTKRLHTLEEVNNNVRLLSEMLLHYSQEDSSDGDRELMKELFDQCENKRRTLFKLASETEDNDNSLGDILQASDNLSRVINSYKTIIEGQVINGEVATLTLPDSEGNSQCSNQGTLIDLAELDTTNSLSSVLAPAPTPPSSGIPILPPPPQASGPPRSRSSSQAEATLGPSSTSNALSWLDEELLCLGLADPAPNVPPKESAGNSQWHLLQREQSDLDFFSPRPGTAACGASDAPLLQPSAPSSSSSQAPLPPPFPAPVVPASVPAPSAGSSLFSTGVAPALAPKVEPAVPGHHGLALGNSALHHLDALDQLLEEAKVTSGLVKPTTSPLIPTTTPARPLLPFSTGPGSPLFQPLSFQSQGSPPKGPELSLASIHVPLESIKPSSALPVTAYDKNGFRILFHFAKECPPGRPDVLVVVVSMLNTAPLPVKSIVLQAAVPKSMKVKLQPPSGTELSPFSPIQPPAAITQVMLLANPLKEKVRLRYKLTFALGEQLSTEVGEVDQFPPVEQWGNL
UniProt P57678: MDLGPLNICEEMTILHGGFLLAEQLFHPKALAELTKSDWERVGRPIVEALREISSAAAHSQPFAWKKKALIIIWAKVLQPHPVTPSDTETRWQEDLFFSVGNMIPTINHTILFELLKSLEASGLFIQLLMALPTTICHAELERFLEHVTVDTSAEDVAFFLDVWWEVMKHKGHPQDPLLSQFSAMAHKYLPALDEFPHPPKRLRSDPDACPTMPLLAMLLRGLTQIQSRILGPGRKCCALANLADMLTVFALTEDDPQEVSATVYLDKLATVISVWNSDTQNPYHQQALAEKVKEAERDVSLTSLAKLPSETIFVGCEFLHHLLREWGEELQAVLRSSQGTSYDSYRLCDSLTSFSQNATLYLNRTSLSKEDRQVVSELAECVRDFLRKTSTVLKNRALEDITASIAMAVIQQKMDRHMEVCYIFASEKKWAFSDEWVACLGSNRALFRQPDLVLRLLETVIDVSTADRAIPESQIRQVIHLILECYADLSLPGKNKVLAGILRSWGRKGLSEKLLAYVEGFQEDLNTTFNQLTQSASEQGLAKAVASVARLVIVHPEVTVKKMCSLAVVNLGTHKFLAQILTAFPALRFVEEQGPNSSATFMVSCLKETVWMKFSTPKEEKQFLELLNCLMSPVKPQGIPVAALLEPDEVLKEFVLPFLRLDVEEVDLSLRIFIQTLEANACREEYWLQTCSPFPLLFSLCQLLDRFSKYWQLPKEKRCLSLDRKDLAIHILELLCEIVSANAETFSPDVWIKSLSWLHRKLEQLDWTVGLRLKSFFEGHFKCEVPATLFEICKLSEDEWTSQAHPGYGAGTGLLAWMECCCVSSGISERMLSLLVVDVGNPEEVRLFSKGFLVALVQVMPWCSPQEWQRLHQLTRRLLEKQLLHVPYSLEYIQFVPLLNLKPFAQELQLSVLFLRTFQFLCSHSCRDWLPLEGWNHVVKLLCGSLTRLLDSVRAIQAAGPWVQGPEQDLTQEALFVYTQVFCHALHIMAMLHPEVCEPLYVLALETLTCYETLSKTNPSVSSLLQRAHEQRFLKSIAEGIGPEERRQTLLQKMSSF
UniProt Q01415: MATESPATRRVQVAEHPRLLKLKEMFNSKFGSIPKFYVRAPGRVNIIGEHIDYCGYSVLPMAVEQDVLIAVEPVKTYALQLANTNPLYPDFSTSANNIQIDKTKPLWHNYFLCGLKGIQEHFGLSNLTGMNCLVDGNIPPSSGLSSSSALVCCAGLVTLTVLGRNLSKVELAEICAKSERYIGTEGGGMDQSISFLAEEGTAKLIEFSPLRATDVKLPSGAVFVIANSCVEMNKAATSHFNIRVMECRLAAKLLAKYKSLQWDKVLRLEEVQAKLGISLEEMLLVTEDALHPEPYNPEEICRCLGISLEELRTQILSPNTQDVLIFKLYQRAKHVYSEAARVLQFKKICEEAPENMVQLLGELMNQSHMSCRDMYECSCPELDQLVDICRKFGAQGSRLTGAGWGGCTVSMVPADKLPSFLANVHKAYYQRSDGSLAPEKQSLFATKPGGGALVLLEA
UniProt Q5TBA9: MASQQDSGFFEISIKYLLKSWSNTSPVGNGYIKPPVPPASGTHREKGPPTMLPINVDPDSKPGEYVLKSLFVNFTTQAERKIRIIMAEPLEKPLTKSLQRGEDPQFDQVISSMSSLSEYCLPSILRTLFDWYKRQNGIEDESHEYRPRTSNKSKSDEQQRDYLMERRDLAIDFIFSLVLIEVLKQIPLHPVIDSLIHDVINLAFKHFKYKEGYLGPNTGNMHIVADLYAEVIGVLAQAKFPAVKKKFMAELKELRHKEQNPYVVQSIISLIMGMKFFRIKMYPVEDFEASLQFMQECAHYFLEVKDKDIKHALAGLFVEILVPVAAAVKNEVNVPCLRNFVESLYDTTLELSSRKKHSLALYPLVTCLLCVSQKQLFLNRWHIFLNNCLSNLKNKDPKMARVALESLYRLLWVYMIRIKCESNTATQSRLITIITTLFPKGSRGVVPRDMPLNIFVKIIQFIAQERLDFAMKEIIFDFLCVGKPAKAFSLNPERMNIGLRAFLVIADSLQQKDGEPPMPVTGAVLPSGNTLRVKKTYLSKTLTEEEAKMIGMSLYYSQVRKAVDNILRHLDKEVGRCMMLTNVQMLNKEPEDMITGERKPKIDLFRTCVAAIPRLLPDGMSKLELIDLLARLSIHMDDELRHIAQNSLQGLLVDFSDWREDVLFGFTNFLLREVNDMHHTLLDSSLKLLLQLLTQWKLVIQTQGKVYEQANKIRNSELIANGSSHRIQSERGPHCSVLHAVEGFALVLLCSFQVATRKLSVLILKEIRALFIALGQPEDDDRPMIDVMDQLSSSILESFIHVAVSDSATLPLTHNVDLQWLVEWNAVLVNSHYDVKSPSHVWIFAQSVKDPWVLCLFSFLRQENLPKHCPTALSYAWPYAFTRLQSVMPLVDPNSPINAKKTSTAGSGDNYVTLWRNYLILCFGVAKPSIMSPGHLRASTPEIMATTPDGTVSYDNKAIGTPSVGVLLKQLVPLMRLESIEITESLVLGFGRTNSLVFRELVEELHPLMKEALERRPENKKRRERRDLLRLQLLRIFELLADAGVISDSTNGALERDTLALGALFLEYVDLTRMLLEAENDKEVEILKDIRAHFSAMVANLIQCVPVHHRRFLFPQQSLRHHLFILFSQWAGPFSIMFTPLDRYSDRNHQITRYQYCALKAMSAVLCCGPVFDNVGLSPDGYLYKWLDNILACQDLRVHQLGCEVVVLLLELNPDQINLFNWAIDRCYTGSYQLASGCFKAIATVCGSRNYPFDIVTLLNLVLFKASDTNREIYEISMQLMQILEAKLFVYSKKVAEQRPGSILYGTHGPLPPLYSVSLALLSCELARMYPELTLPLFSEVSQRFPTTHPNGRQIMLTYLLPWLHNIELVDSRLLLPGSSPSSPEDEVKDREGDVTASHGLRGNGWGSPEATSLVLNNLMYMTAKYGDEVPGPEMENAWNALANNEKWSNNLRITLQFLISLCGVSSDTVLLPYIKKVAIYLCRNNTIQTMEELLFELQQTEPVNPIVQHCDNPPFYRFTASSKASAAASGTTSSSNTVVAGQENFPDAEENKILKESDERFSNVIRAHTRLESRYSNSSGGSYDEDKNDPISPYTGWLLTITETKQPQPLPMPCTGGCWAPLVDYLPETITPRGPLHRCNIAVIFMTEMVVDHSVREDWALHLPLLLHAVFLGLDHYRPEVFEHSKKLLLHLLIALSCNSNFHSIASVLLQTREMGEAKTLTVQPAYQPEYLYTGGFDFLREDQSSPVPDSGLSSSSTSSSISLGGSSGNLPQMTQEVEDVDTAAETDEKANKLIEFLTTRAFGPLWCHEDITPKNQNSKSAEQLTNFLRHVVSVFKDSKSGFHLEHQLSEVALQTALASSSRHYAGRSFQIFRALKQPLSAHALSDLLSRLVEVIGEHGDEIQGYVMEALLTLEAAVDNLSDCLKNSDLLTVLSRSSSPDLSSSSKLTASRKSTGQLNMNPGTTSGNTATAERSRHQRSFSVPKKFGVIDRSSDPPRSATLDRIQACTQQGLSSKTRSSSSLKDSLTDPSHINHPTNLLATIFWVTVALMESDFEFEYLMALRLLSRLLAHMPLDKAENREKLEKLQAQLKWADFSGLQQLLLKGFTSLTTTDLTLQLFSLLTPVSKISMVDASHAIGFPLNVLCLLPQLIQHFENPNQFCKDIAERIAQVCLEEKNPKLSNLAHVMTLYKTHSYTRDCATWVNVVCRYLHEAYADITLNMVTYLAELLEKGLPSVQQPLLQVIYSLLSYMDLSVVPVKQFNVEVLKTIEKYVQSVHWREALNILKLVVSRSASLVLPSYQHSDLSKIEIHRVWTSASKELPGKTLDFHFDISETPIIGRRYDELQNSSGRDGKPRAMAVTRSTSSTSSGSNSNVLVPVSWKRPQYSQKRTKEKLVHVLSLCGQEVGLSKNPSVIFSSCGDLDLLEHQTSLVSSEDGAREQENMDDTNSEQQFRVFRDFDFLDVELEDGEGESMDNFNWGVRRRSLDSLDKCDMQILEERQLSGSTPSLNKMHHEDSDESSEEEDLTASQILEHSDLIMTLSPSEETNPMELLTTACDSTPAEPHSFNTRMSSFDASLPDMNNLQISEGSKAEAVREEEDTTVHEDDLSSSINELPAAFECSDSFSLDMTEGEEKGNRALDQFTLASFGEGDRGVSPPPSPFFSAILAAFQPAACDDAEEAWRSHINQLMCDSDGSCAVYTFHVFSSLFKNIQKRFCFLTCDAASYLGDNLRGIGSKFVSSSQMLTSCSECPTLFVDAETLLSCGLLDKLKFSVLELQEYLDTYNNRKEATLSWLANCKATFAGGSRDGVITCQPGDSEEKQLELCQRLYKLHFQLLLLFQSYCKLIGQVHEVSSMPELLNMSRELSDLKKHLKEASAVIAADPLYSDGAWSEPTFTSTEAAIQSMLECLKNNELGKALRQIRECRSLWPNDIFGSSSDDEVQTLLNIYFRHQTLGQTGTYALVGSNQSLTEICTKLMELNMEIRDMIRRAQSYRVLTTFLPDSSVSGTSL
UniProt Q8IWF2: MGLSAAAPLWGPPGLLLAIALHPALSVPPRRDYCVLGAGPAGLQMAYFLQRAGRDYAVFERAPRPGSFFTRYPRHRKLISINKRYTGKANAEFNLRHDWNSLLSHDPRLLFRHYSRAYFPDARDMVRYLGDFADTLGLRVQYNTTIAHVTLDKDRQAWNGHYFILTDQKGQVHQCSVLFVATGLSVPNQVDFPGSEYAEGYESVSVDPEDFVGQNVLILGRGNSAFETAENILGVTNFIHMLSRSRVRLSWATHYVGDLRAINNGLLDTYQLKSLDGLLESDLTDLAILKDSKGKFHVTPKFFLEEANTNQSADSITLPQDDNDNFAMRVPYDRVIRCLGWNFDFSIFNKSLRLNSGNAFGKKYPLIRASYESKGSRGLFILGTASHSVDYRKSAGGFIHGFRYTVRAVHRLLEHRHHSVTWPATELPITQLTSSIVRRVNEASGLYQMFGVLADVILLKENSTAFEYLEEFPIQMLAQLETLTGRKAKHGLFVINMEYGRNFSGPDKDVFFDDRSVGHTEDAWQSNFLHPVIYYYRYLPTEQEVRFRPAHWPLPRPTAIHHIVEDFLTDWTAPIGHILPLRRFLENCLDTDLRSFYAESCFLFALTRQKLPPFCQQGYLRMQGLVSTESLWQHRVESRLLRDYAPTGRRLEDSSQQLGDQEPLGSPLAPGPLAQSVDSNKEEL
UniProt P02774: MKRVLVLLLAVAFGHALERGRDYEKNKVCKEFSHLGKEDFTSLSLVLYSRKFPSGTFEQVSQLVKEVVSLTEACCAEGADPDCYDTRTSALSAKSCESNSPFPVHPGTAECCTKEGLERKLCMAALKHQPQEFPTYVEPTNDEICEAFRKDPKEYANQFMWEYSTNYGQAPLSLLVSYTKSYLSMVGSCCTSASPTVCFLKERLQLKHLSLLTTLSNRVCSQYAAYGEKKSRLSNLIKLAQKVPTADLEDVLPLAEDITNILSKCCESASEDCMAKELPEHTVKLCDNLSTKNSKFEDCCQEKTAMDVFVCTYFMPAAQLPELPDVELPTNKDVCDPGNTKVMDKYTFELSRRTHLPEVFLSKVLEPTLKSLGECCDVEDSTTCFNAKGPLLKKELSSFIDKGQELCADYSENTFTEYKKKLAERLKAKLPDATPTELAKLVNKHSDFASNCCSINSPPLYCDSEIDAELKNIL

The other results are listed elsewhere or left out.

Compound in the test: c1cn2cc(-c3ccc4cn[nH]c4c3)nc(Nc3ccc(N4CCOCC4)cc3)c2n1 [entospletinib]
In words: log2 fold change, soluble protein after heating vs DMSO (PISA); higher = thermal stabilisation; K562 cells, 10 uM, 30 min; active = over 0.2 and 3.5 SD of the protein, either way, in both replicates (recomputed). The procedure, abridged: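 Soluble protein was defined as the supernatant after 21,000xg for 90 min. It came from K562 cells at 2×10^6 cells/mL given 10 μM compound for 30 min, heated in aliquots for 3 min across 48°C-58°C, pooled, and extracted in PBS with 0.5% NP-40 at 4°C, and was quantified by TMTpro 16plex LC-MS/MS with equalised channel sums. Thermal stability against control samples, from duplicates, is reported as log2 fold change.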
Regarding GAR1 (UniProt Q9NY12), the log2 fold change is inactive: 0.083.

Regarding GADD45GIP1 (UniProt Q8TAE8), the log2 fold change was inactive: 0.068.

On to GATAD2A isoform 3 (UniProt Q86YP4), for which the log2 fold change is inactive: -0.015.

As to GATAD2B (UniProt Q8WXI9), the log2 fold change is inactive: -0.288.

In the case of GGCT (UniProt O75223), the log2 fold change is inactive: 0.058.

Consider GGA3 (UniProt Q9NZ52), for which the log2 fold change was inactive: -0.015.

On to FYTTD1 (UniProt Q96QD9), for which the log2 fold change is inactive: -0.069.

In the case of GAS6 isoform 1 (UniProt Q14393), the log2 fold change was inactive: 0.013.

In the case of GEMIN8 (UniProt Q9NWZ8), the log2 fold change was inactive: -0.067.

For the target G6PC3 (UniProt Q9BUM1), the log2 fold change was inactive: 0.033.

As for GEMIN4 (UniProt P57678), the log2 fold change is inactive: 0.137.

Take GART (UniProt C9JZG2): the log2 fold change is inactive: -0.325.

Take GFAP isoform 2 (UniProt P14136): the log2 fold change is inactive: 0.

As for GALNT12 (UniProt Q8IXK2), the log2 fold change is inactive: 0.032.

As for FTH1 (UniProt P02794), the log2 fold change is inactive: 0.045.

In the case of GALK2 (UniProt Q01415), the log2 fold change was inactive: -0.044.

Consider GAGE5 (UniProt Q13069), for which the log2 fold change is inactive: 0.062.

Regarding GANAB isoform 2 (UniProt Q14697), the log2 fold change is inactive: -0.003.

In the case of FRY (UniProt Q5TBA9), the log2 fold change was inactive: 0.049.

Regarding GAPDH (UniProt P04406), the log2 fold change was inactive: 0.024.

Turning to GCHFR (UniProt P30047), the log2 fold change is inactive: -0.137.

Consider FOXRED2 (UniProt Q8IWF2), for which the log2 fold change was inactive: 0.022.

Consider GCLC (UniProt P48506), for which the log2 fold change was inactive: 0.007.

Take GALT (UniProt P07902): the log2 fold change is inactive: -0.049.

Consider GARS1 (UniProt P41250), for which the log2 fold change was inactive: -0.007.

For GAGE1 (UniProt Q13065), the log2 fold change was inactive: -0.082.

As for GBA (UniProt P04062), the log2 fold change is inactive: 0.01.

For GGPS1 (UniProt O95749), the log2 fold change was inactive: -0.071.

In the case of FOXRED1 (UniProt Q96CU9), the log2 fold change was inactive: 0.068.

In the case of GC isoform 3 (UniProt P02774), the log2 fold change was inactive: 0.127.

Turning to GAN (UniProt Q9H2C0), the log2 fold change was inactive: 0.025.
